Assay results as given in patent US20150337013A1, “NOVEL ANTIBACTERIAL AGENTS FOR THE TREATMENT OF GRAM POSITIVE INFECTIONS” (priority 2008, published 2015).
For at least one compound, name, drawing or mass did not settle the structure. Some entries repeat one wording, which the source may state once for all of them.

Legend:
[1] = system: daptomycin resistant Staph. aureus (DRSA), daptomycin resistant E. faecium (DREfm) and daptomycin resistance E. faecalis (DREfs); experiment: Activity against daptomycin resistant bacteria, summary statement; type: cell-based; conditions: statement in words
Method: Compounds according to Formula I were tested for antimicrobial activity against a panel of organisms. Aerobic organisms, Staphylococcus aureus, Enterococcus faecalis and E. faecium, were tested by broth microdilution according to Clinical and Laboratory Standards Institute (CLSI) document M7-A7 (Clinical and Laboratory Standards Institute. Methods for Dilution Antimicrobial Susceptibility Tests for Bacteria that Grow Aerobically; Approved Standard—Seventh Edition. CLSI document M7-A7 [ISBN 1-56238-587-9]. Clinical and Laboratory Standards Institute, 940 West Valley Road, Suite 1400, Wayne, Pa. 19087-1898 USA, 2006) with modifications as described below. Mueller Hinton Broth (MHBc) was supplemented with 50 mg/L calcium (equivalent to human physiological levels of calcium) and assay plates were incubated 18-20 hours at 37° C. with aeration (200 rpm).
In all cases the final concentration of dimethyl sulfoxide incubated with cells is less than or equal to 1%. For minimum inhibitory concentration (MIC) calculations, 2-fold dilutions of compounds were added to wells of a microtiter plate containing 5×10^5 bacteria in a final volume of 100 μL of media. Following incubation, (18-20 hours at 37° C. with aeration at 200 rpm) growth was confirmed visually by placing plates over a viewing apparatus (stand with a mirror underneath) and then the optical density (OD600) was measured using a SpectraMax 340PC^384 plate reader. Growth was defined as turbidity that could be detected with the naked eye or achieving minimum OD600of 0.1. MIC values (in μg/mL) were defined as the lowest concentration producing no visible turbidity.

[2] = system: C. difficile spores (ATCC #43596); experiment: Hamster C. difficile infection (CDAD) protection model; type: in vivo, Syrian golden hamsters; conditions: oral 0.5 mg/kg once daily for 5 days (MET 70 mg/kg three times daily for 5 days)
Method: Syrian golden hamsters were pretreated with 10 mg/kg clindamycin subcutaneously 24 hours before bacterial challenge. An inoculum of 20 C. difficile spores (ATCC #43596) in sterile saline was administered orally. Treatment was initiated 4 hours post-inoculation with dH2O, metronidazole (MET), vancomycin (VAN), or a compound of the present invention. Oral dosing regimens for VAN and compounds of Formula I were 0.5 mg/kg once daily for 5 days. MET was administered at 70 mg/kg three times daily for 5 days. CDAD was confirmed as the cause of death by observations at necropsy, including wet tail and/or macroscopic cecal alterations. The % protection provided by each therapy tested was calculated at 1 and 21 days post-dosing.

Structure (SMILES) | useful against daptomycin resistant strains of bacteria [1] | Mean % Protection 1 Day Post Dosing [2] [%] | Mean % Protection 21 Days Post Dosing [2] [%]
CCCCCCC1CCC(C(=O)N[C@@H](Cc2c[nH]c3ccccc23)C(=O)N[C@H](CC(N)=O)C(=O)N[C@@H](CC(=O)O)C(=O)N[C@@H]2C(=O)NCC(=O)N[C@@H](CCCN)C(=O)N[C@@H](CC(=O)O)C(=O)N[C@H](C)C(=O)N[C@@H](CC(=O)O)C(=O)NCC(=O)N[C@H](CO)C(=O)N[C@@H]([C@H](C)CC(=O)O)C(=O)N[C@@H](CC(=O)c3ccccc3N)C(=O)O[C@@H]2C)CC1 (some centres unmarked) [Compound 18] | useful against daptomycin resistant strains of bacteria |  | 
CCCCCCc1ccc(C(=O)N[C@@H](Cc2c[nH]c3ccccc23)C(=O)N[C@H](CC(N)=O)C(=O)N[C@@H](CC(=O)O)C(=O)N[C@@H]2C(=O)NCC(=O)N[C@@H](CCCN)C(=O)N[C@@H](CC(=O)O)C(=O)N[C@H](C)C(=O)N[C@@H](CC(=O)O)C(=O)NCC(=O)N[C@H](CO)C(=O)N[C@@H]([C@H](C)CC(=O)O)C(=O)N[C@@H](CC(=O)c3ccccc3N)C(=O)O[C@@H]2C)cc1 [Compound 32] | useful against daptomycin resistant strains of bacteria |  | 
CCCCCCCc1csc(C(=O)N[C@@H](Cc2c[nH]c3ccccc23)C(=O)N[C@H](CC(N)=O)C(=O)N[C@@H](CC(=O)O)C(=O)N[C@@H]2C(=O)NCC(=O)N[C@@H](CCCN)C(=O)N[C@@H](CC(=O)O)C(=O)N[C@H](C)C(=O)N[C@@H](CC(=O)O)C(=O)NCC(=O)N[C@H](CO)C(=O)N[C@@H]([C@H](C)CC(=O)O)C(=O)N[C@@H](CC(=O)c3ccccc3N)C(=O)O[C@@H]2C)c1 [Compound 43, N-(4-heptylthiophene-2-carbonyl)-L-tryptophyl-D-asparaginyl-L-α-aspartyl-L-threonylglycyl-L-ornithyl-L-α-aspartyl-D-alanyl-L-α-aspartylglycyl-D-seryl-(3R)-3-methyl-L-α-glutamyl-(αS)-α,2-diamino-γ-oxobenzenebutanoic acid (13→4)-lactone] | useful against daptomycin resistant strains of bacteria | 100 | 60
CCCCCCCC/C=C/CC(=O)N[C@@H](Cc1c[nH]c2ccccc12)C(=O)N[C@H](CC(N)=O)C(=O)N[C@@H](CC(=O)O)C(=O)N[C@@H]1C(=O)NCC(=O)N[C@@H](CCCN)C(=O)N[C@@H](CC(=O)O)C(=O)N[C@H](C)C(=O)N[C@@H](CC(=O)O)C(=O)NCC(=O)N[C@H](CO)C(=O)N[C@@H]([C@H](C)CC(=O)O)C(=O)N[C@@H](CC(=O)c2ccccc2N)C(=O)O[C@@H]1C [Compound 4] | useful against daptomycin resistant strains of bacteria |  | 
CCCCCCCCCCCCCCC(=O)N[C@@H](Cc1c[nH]c2ccccc12)C(=O)N[C@H](CC(N)=O)C(=O)N[C@@H](CC(=O)O)C(=O)N[C@@H]1C(=O)NCC(=O)N[C@@H](CCCN)C(=O)N[C@@H](CC(=O)O)C(=O)N[C@H](C)C(=O)N[C@@H](CC(=O)O)C(=O)NCC(=O)N[C@H](CO)C(=O)N[C@@H]([C@H](C)CC(=O)O)C(=O)N[C@@H](CC(=O)c2ccccc2N)C(=O)O[C@@H]1C [Compound 7] | useful against daptomycin resistant strains of bacteria |  | 
CCCCCCCCCCCCCC(=O)N[C@@H](Cc1c[nH]c2ccccc12)C(=O)N[C@H](CC(N)=O)C(=O)N[C@@H](CC(=O)O)C(=O)N[C@@H]1C(=O)NCC(=O)N[C@@H](CCCN)C(=O)N[C@@H](CC(=O)O)C(=O)N[C@H](C)C(=O)N[C@@H](CC(=O)O)C(=O)NCC(=O)N[C@H](CO)C(=O)N[C@@H]([C@H](C)CC(=O)O)C(=O)N[C@@H](CC(=O)c2ccccc2N)C(=O)O[C@@H]1C [Compound 6] | useful against daptomycin resistant strains of bacteria |  | 
CC(C)C1CCC(CCCC(=O)N[C@@H](Cc2c[nH]c3ccccc23)C(=O)N[C@H](CC(N)=O)C(=O)N[C@@H](CC(=O)O)C(=O)N[C@@H]2C(=O)NCC(=O)N[C@@H](CCCN)C(=O)N[C@@H](CC(=O)O)C(=O)N[C@H](C)C(=O)N[C@@H](CC(=O)O)C(=O)NCC(=O)N[C@H](CO)C(=O)N[C@@H]([C@H](C)CC(=O)O)C(=O)N[C@@H](CC(=O)c3ccccc3N)C(=O)O[C@@H]2C)CC1 (some centres unmarked) [Compound 21] | useful against daptomycin resistant strains of bacteria |  | 
CCCCCc1ccc(/C(C)=C/C(=O)N[C@@H](Cc2c[nH]c3ccccc23)C(=O)N[C@H](CC(N)=O)C(=O)N[C@@H](CC(=O)O)C(=O)N[C@@H]2C(=O)NCC(=O)N[C@@H](CCCN)C(=O)N[C@@H](CC(=O)O)C(=O)N[C@H](C)C(=O)N[C@@H](CC(=O)O)C(=O)NCC(=O)N[C@H](CO)C(=O)N[C@@H]([C@H](C)CC(=O)O)C(=O)N[C@@H](CC(=O)c3ccccc3N)C(=O)O[C@@H]2C)cc1 [Compound 49, N-{1-[(E)-3-(4-pentylphenyl)but-2-enoyl]}-L-tryptophyl-D-asparaginyl-L-α-aspartyl-L-threonylglycyl-L-ornithyl-L-α-aspartyl-D-alanyl-L-α-aspartylglycyl-D-seryl-(3R)-3-methyl-L-α-glutamyl-(αS)-α,2-diamino-γ-oxobenzenebutanoic acid (13→4)-lactone] |  | 100 | 100
C[C@H](CC(=O)O)[C@@H]1NC(=O)[C@@H](CO)NC(=O)CNC(=O)[C@H](CC(=O)O)NC(=O)[C@@H](C)NC(=O)[C@H](CC(=O)O)NC(=O)[C@H](CCCN)NC(=O)CNC(=O)[C@@H](NC(=O)[C@H](CC(=O)O)NC(=O)[C@@H](CC(N)=O)NC(=O)[C@H](Cc2c[nH]c3ccccc23)NC(=O)CCCCCC2CCCCC2)[C@@H](C)OC(=O)[C@H](CC(=O)c2ccccc2N)NC1=O [Compound 26] | useful against daptomycin resistant strains of bacteria |  | 
CC(C)CCCCCCCCCCC(=O)N[C@@H](Cc1c[nH]c2ccccc12)C(=O)N[C@H](CC(N)=O)C(=O)N[C@@H](CC(=O)O)C(=O)N[C@@H]1C(=O)NCC(=O)N[C@@H](CCCN)C(=O)N[C@@H](CC(=O)O)C(=O)N[C@H](C)C(=O)N[C@@H](CC(=O)O)C(=O)NCC(=O)N[C@H](CO)C(=O)N[C@@H]([C@H](C)CC(=O)O)C(=O)N[C@@H](CC(=O)c2ccccc2N)C(=O)O[C@@H]1C [Compound 11] | useful against daptomycin resistant strains of bacteria |  | 
CCCCCCCCCCCCC(=O)N[C@@H](Cc1c[nH]c2ccccc12)C(=O)N[C@H](CC(N)=O)C(=O)N[C@@H](CC(=O)O)C(=O)N[C@@H]1C(=O)NCC(=O)N[C@@H](CCCN)C(=O)N[C@@H](CC(=O)O)C(=O)N[C@H](C)C(=O)N[C@@H](CC(=O)O)C(=O)NCC(=O)N[C@H](CO)C(=O)N[C@@H]([C@H](C)CC(=O)O)C(=O)N[C@@H](CC(=O)c2ccccc2N)C(=O)O[C@@H]1C [Compound 5] | useful against daptomycin resistant strains of bacteria |  | 
CC(C)CCCCCCCCCC(=O)N[C@@H](Cc1c[nH]c2ccccc12)C(=O)N[C@H](CC(N)=O)C(=O)N[C@@H](CC(=O)O)C(=O)N[C@@H]1C(=O)NCC(=O)N[C@@H](CCCN)C(=O)N[C@@H](CC(=O)O)C(=O)N[C@H](C)C(=O)N[C@@H](CC(=O)O)C(=O)NCC(=O)N[C@H](CO)C(=O)N[C@@H]([C@H](C)CC(=O)O)C(=O)N[C@@H](CC(=O)c2ccccc2N)C(=O)O[C@@H]1C [Compound 10] | useful against daptomycin resistant strains of bacteria |  | 
CCCCCCCCCCCC(=O)N[C@@H](Cc1c[nH]c2ccccc12)C(=O)N[C@H](CC(N)=O)C(=O)N[C@@H](CC(=O)O)C(=O)N[C@@H]1C(=O)NCC(=O)N[C@@H](CCCN)C(=O)N[C@@H](CC(=O)O)C(=O)N[C@H](C)C(=O)N[C@@H](CC(=O)O)C(=O)NCC(=O)N[C@H](CO)C(=O)N[C@@H]([C@H](C)CC(=O)O)C(=O)N[C@@H](CC(=O)c2ccccc2N)C(=O)O[C@@H]1C [Compound 3] | useful against daptomycin resistant strains of bacteria |  | 
C[C@H](CC(=O)O)[C@@H]1NC(=O)[C@@H](CO)NC(=O)CNC(=O)[C@H](CC(=O)O)NC(=O)[C@@H](C)NC(=O)[C@H](CC(=O)O)NC(=O)[C@H](CCCN)NC(=O)CNC(=O)[C@@H](NC(=O)[C@H](CC(=O)O)NC(=O)[C@@H](CC(N)=O)NC(=O)[C@H](Cc2c[nH]c3ccccc23)NC(=O)CCCCCCC2CCCCC2)[C@@H](C)OC(=O)[C@H](CC(=O)c2ccccc2N)NC1=O [Compound 25] | useful against daptomycin resistant strains of bacteria |  | 
